Assay results reported in article PMC11347159, “MUT-7 exoribonuclease activity and localization are mediated by an ancient domain” (Nucleic Acids Research, 2023).
These are yes or no findings as the source states them, for the method shown. Binding seen in cells or lysates may run through a third protein. Binding can be weak; no strength is given.

Amino acid sequences for entries named in this document (tags omitted). A change or cut given only in a name is not applied to a line headed by its entry.
UniProt P34607: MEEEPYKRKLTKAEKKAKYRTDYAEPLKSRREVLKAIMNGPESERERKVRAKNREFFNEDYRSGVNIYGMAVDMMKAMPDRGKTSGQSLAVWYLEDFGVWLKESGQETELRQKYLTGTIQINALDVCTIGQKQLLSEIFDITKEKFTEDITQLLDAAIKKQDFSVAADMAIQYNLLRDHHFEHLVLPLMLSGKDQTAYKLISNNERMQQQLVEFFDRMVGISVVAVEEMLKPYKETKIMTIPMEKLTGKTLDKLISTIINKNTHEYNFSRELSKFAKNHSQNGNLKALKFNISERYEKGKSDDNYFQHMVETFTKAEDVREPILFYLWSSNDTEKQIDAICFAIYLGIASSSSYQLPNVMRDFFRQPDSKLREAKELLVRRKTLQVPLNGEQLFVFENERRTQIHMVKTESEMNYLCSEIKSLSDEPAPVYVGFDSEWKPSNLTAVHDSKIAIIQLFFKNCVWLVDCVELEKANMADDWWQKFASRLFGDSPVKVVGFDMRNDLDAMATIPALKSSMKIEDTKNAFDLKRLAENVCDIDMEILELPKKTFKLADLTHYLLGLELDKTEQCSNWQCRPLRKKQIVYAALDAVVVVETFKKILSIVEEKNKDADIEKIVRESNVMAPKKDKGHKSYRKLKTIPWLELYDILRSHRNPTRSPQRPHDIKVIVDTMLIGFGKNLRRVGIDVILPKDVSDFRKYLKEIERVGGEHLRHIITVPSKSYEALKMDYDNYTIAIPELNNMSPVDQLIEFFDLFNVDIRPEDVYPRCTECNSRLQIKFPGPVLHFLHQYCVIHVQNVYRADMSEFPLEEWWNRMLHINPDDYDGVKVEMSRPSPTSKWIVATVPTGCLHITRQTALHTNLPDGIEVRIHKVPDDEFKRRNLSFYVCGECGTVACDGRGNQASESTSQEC

Target: catalytically inactive MUT-7^FL(D453A) (Caenorhabditis elegans) (UniProt P34607)
Test: co-purification; MUT-7 mutant and MUT-8^CTD purified together as a complex from E. coli (steps in Supplementary Table S1)

binding: binds
B1: MUT-8^CTD (322–578) (domain or fragment, UniProt Q19672 322-578)
chain: DEDEIDDEDTYGTRGTSNIPMRPFIKDLAPTMLQLLRQDKTDSEKPQSALCTVVQKIDGFAILYTAKRDVINVLLQERSCEGLERSPQLGDVAFFDILPRRIETKDRLIFKIPYTHIAVKKKPDTPDSLLKIDCFKNSVRCFGGVLEMKVKIALSKPELVVEQYHDNTEMNSDHHFYYLKATNGVLVTIPKERLLNHLNSKLSADFDLIAWVVHRKPIGNVSLHIGKGGEAYQQFTNGDIRELPPLSSNQYFMNVRK
